# Data as given in patent publication US20230167155A1 (KING'S COLLEGE LONDON, priority 2020, published 2023).
# Assay: peptide synthesis
# Details: conjugation step, UV 220, 240, 280 nm, TFA salt
substance,measurement,value
"[Myr2]-KSSKSPSKKDDKKPGDK(CO—CH2-S—CH2-CH2-Phe-Cha-Cha-Arg-Lys-Pro-Asn-Asp-Lys-NH2)NH2 (Myr2, thioether-linked Phe-Cha-Cha branch, C-terminal amide; Synthetic compound (PTL0GC1 - including Lysine residue))",final HPLC purity,>95%
